Data reported in PubChem BioAssay AID1508600 (Functional Genomics Laboratory (NCATS/FGL), 2020).
In all, about 53,000 sequences went through this assay and about 3,700 (7%) were called active.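 Rule for the calls: active = gene knockdowns whose robust z-score for IL-1 alpha signal is at least 2 or at most -2, so actives lie on both sides; inactive = the rest.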 Some of the results follow.

test: Components of the Cytosolic LPS Sensing Pathway: Gene Identification via Genome-wide siRNA Screen; conditions: RAW264.7 macrophages, IL-1a HTRF, actives lie on both sides, screened at 100 nM (by protocol), cells primed 5 h with Pam3CSK4 first;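 note: robust z of the log signal after scaling to non-targeting control siRNA wells of the plate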
Procedure, shortened: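 Mouse macrophage line RAW264.7 is transfected with siRNA (100 nM final), grown 48h, primed with TLR ligand Pam3CSK4 5 h and given intracellular LipidA 24 h. IL-1a in supernatant is read by HTRF and viability by luminescence.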

Sequence | z-score
GGAGGAACAUAUGCUCAGATT against Lce1e | active: -2.99
GGACAUGGUACCACAGGAGTT against Tenm4 | inactive: 0.643
GGUUCUUUUGAGCUUUAUGTT against Oscp1 | inactive: 0.263
GGCUAAUAGACUUAUUAGGTT against Cdip1 | inactive: 0.45
CCAAUGAUGAAUCCCUUCATT against Olfr781 | inactive: 0.294
GGACUUCUAGAGAAGAAGCTT against Gpn2 | inactive: 0.0803
CGCCCAUCUACGUUUUUACTT against Neil1 | inactive: 0.638
GCUCAUUCCAGCAGUAAUGTT against Taf6 | inactive: -1.26
GGCAAUAGAAACUUUUGGUTT against Vmn1r-ps103 | inactive: -0.0332
GGAGGCUUCUAUUGCCAUATT against Olfr380 | inactive: -0.572
GCGGUCACACCAAAAGUCATT against Olfr1466 | inactive: -1.56
GCGAACCAAACUUGCAUAUTT against Znrf2 | inactive: 1.19
GGUACAAAUGCAUUGAGAGTT against Fcamr | inactive: -1.3
GGUGCAUUUUGUCUAUGAUTT against Lamp5 | active: -2.04
CCAAGUGCUCAGCUAAACUTT against Zscan4c | inactive: -1.11
GGAGUUCAAGUAUACGUGUTT against Clic3 | inactive: -0.0472
GGUUCCAUUCUUGUCACCCTT against Lifr | inactive: -1.53
GGCAUCGAUGAACUCUACUTT against A730013G03Rik | inactive: 0.772
GCUACUCAUUUAGCAGAGATT against Olfr76 | inactive: -0.887
GGCAUUGACUAUGAGAUAGTT against Gstz1 | inactive: -0.914
GGAUCCGUAUUCAGAUUUATT against Nrk | inactive: 0.941
GCCUUUGCGUUAUGCUACUTT against Olfr610 | inactive: -0.321

Sequence | z-score
CGUUUUCACAUUCGGUGGATT against Alpl | inactive: 0.466
CGGUGAAAAACCUAUGUAUTT against 1700028P14Rik | inactive: 0.115
GGGAAAGUCGAGCUUUUUCTT against Ifi44l | inactive: 0.0658
GUGCUAUUCAUGCACAGCATT against Psca | inactive: 0.0658
GGUUUGAGCAACUAACUAATT against Lhx2 | inactive: -0.0483
GGAUCAAAUGUGGCAUAUUTT against Rassf5 | inactive: 0.597
CCAAUGAGAGUUCUAUGAUTT against Cxxc4 | inactive: -0.192
GCGGACUGUUUUGAUACAUTT against Mtpap | inactive: 0.519
GGGAAAAACACUUCUCACUTT against Slc35e2 | inactive: -0.238
GGACUGAACUAACAGGAAGTT against Klrb1f | inactive: 0.415
GGAGGUUAACAGCUGCCAATT against Rnaset2b | inactive: -0.223
GGCCCUUACAGAGUCUGGATT against B930095G15Rik | inactive: 0.833
GGACUUCUUCAGAAACAGCTT against Gtf2a1l | inactive: 0.273
GGCAUCAUACUGAUUGGUGTT against Suclg1 | inactive: -0.496
GGUCCUCAUUUAUUGAAAUTT against Cdkn1b | inactive: -0.241
GGCUUCCUGAUGGAUUUAUTT against Stk11ip | inactive: 1.02
GCAGCCUCAACAACAACCCTT against Rnf145 | inactive: 0.0473
GGCACUGCAUAUUUGGUAUTT against Dmrtc2 | inactive: 0.478
GGUAAUCAGUAGUGACUUATT against Mkln1 | inactive: 0.229
GGAGCCUCAGGUCCAAAUGTT against Fancd2os | inactive: 1.89
GCCCUCUUGUGAUUAAGCATT against Esr1 | inactive: -0.959
CCAUCAGCCUUUAUAAACUTT against Ywhah | inactive: -0.496

Sequence | z-score
CCUAUAUUACACGUCAUUUTT against Trim30a | inactive: -0.178
GCUAGUCUAGCCAUUGUCATT against Lamp3 | inactive: 0.469
GGCAGAUGGUAUCAGCUGUTT against Cd248 | inactive: -1.11
GCUGACUCAUCCAAGAACUTT against Dmkn | inactive: 0.276
GGACGAGUGCCUGUUUUCATT against Med8 | active: 4.09
CCUAAACUGCUUGCUGAUATT against Olfr1204 | inactive: 1.13
GGAAGGUGGAGUUUGAAAGTT against Rpap2 | inactive: 0.2
GGUGAUAUCUUUCCAUCUUTT against Wiz | inactive: -0.176
GCCUGUUUAGAGCGUAAACTT against Numb | inactive: 0.561
GCGAGAGACAACUGACUAATT against Zcchc13 | inactive: -0.798
GGAAGGUCAAAGUCCUUUATT against Pitpnm2 | inactive: -0.685
GGCUACAAUAAUGUUUCCCTT against Pglyrp3 | inactive: 1.7
GGCUUCCACAAAGAAAGACTT against Tsga8 | inactive: -0.82
GCCAGAUGGUAGGCGAUUATT against Mamstr | inactive: -0.637
GCAAUACGUUUGUGCAGAATT against Cacna1g | inactive: 0.993
CCUUCAGACUGUCAACAAUTT against Chrm2 | inactive: -0.386
GGAAGUCAAAAGUGAUUAGTT against Zbtb48 | inactive: -0.0306
GGAAAUGAAGCAGACUGUGTT against Htr2b | inactive: -0.69
GCCGGGCAAUGAAUUUACUTT against Ms4a5 | inactive: 0.419
GCCUGACUACUGAAGCUUGTT against Tma16 | inactive: -0.819
GGUGUACAUGGACAUCAAGTT against Ppie | inactive: 0.0171
GCUUCCAUAGGUUUAACUUTT against Efhb | inactive: -0.517

Quoted from the listing.
In z-score, GGCAGAUGGUAUCAGCUGUTT against Cd248 has inactive: -1.11
In z-score, GGAAGGUCAAAGUCCUUUATT against Pitpnm2 has inactive: -0.685
In z-score, GGUGAUAUCUUUCCAUCUUTT against Wiz has inactive: -0.176
In z-score, CCUAAACUGCUUGCUGAUATT against Olfr1204 has inactive: 1.13
In z-score, GCUUCCAUAGGUUUAACUUTT against Efhb has inactive: -0.517
In z-score, GCAAUACGUUUGUGCAGAATT against Cacna1g has inactive: 0.993

Next records follow:

Sequence | z-score
GGCCAACUGGUAUUUCUUGTT against Acadm | inactive: -1.18
GGCAGAUAGACAACUUUCUTT against Olfr92 | inactive: -1.66
GGGAUUGAGAUCCUCAUACTT against Olfr1179 | inactive: 0.125
GCUCCAAUAGCGUAUAUUATT against Pigt | inactive: -0.75
GGAAAACCAAGACCACAAATT against Hmgn5 | inactive: 1.39
GGACAAUGAAGAUUUGGAATT against Ush2a | inactive: -0.669
GGAGACAGCUCAAAAAGAATT against Clp1 | inactive: -0.921
CCAAGAAGCUCCCACGAUATT against Gm839 | inactive: 0.395
GGGCUCCUCAAUCACAAAUTT against Slc27a5 | inactive: -0.2
CCAGAUAUGCACAUGAUAUTT against Spata33 | inactive: -0.314
CCACAUUCAGCCAAUGAAGTT against Olfr195 | inactive: -1.25
GGUGUAUGAACAGCUCUAUTT against Lin7b | inactive: 1.09
GGGCAAGACUGUUUCUGUGTT against 9830107B12Rik | inactive: -0.471
GGUCAUAGCUUAGAAGGUGTT against Rhov | inactive: -0.233
CCCAGGUGAGACCUUUACCTT against Fndc3b | inactive: -1.76
GGGCUAUGCCUACUACACUTT against Fn3k | inactive: 0.976
UUAUAGAAACGACAAGACUTT against Tmem126b | inactive: -0.518
GCAGAAGCUAUAUAGCAAGTT against Gpat4 | inactive: -1.3
GGCCAUCGUCUUGAAGAAGTT against Cdca5 | inactive: 0.661
GGACCAACGUGCAGAAAUGTT against Metrn | inactive: -0.702
GGAGUGAUAGUCAUCAAUGTT against Olfr357 | inactive: -0.464
GGAGACCAGGAAUAAUUGUTT against 5330438I03Rik | inactive: 0.216

Sequence | z-score
GCAGGAAUGUUCAGAAACATT against Txlng | inactive: -1.66
GGAACAAUAUAUCUUCAUCTT against Ptpru | inactive: 0.583
GGAUCUGGUGAAACUAGCUTT against Psmd4 | inactive: 0.0684
GCAGAAGAAACAGCUGUCUTT against Tmem140 | inactive: -1.95
GGUCACUUCCUGUCUUUAATT against Crlf2 | inactive: -0.771
GGAAACAAAUGAGUUGCUGTT against Stx12 | inactive: -0.7
CUGCGAGGCUUUUUAAAUGTT against Prr7 | inactive: -0.346
GGUAUUGGUCCAAUUUUUCTT against Gng7 | inactive: 0.187
CCCAGAGCUGUUAUUUAAATT against Ripk3 | inactive: 0.514
GGUUACAGCACUGAUUGUUTT against Chac2 | inactive: 0.77
GGGUCAUGUAACUAGUAUATT against Tprkb | inactive: 0.973
GCACAGGUCUAAUUCGUCUTT against Grik1 | active: -2.78
GGUUGAGAAGUCUGUUAAUTT against Hsph1 | inactive: 1.05
GGAUGAGUGCAGCAAAAGUTT against Gm4861 | inactive: 0.396
GGUGGUAGUUUAUGAUCAATT against Dusp16 | inactive: -0.00387
GGCAACAAUGGUUGUCUUGTT against Ctsr | inactive: 0.515
GGUCAUUCCUGUGCACCAGTT against Psmb11 | inactive: 0.526
CCUGUGAAAUACCAGCGUGTT against Rsl24d1 | active: 2.05
